# Source: PubChem BioAssay AID1347075 (National Center for Advancing Translational Sciences (NCATS), 2019)
# The whole screen tested about 400,000 compounds, of which about 5,500 (1.4%) were called active. The shares of active, inactive and inconclusive entries below differ from those in the screen. Calls come from the whole dose curve; as a rule, active = well fitted cell-killing curve with a large enough effect; inconclusive = small, poorly fitted or top-dose-only effect, or effect the other way; inactive = flat fitted curve, though single readings scatter. A potency beside an inconclusive call is a rough fit, not a confirmed value.
# Experiment: qHTS assay for MDR1-selective chemotherapeutics: Primary screen using the parental adenocarcinoma cell KB-3-1; note: nearly all actives have a fitted effect of over 60% in size
# Conditions: KB-3-1 viability, CellTiter-Glo ATP luminescence, 72 h; activity change, negative = cytotoxic: at 46.1 µM (top of the series)
# In short: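 KB-3-1 cells, DMEM (no phenol red) + 10% FBS; compound by pin transfer, 72 h, 37 °C. Readout: CellTiter-Glo luminescence after 10 min. Data normalized, curve-fitted.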
# % is set by controls: 0 for no effect and ±100 for the full control effect; potency is the fitted concentration of half-maximal effect.
SMILES,Potency,"activity change, negative = cytotoxic"
COc1ccc(S(=O)(=O)NCc2ccco2)cc1NC(=O)c1ccccc1,"inconclusive: 23.1 µM [cytotoxic, single point]",–
COCc1nnc(NC(=O)C2CC(=O)N(c3ccc(C)c(Cl)c3)C2)s1 (stereo not given),–,inactive: -8.57%
C/C(=N\O)c1ccc2c3ccccc3n(C)c2c1,active: 2.59 µM,–
O=c1[nH]cnc2c1c(-c1ccccc1)cn2-c1cccc(Cl)c1,"inconclusive: 29.1 µM [cytotoxic, single point]",–
CC1(Cc2ccc(C(F)(F)F)o2)C(=O)Nc2cc(-c3ccc(F)cc3F)ccc21 (stereo not given),"inconclusive: 29.1 µM [cytotoxic, single point]",–
COc1ccc(C(C(=O)NCc2ccccc2)N(Cc2ccco2)C(=O)c2snc(C(N)=O)c2N)cc1OC (stereo not given),–,inactive: 2.56%
Cc1ccc(CCNc2ncnc(Cl)c2N)cc1,"inconclusive: 32.6 µM [cytotoxic, single point]",–
CCOC(=O)C(=C1Nc2ccccc2N1)n1c(-c2cccnc2)nc2ccccc21,"inconclusive: 25.9 µM [cytotoxic, single point]",–
CCCn1c(=O)c2c(nc3n2CCCN3CCc2ccccc2)n(C)c1=O,–,inactive: -0.97%
CCOc1ccc(CN(Cc2ccco2)C(c2cccs2)c2nnnn2C(C)(C)C)cc1 (stereo not given),"inconclusive: 23.1 µM [cytotoxic, partial curve]",–
O=C(NCC1COc2ccccc2O1)c1cccc(S(=O)(=O)N2CCCCC2)c1 (stereo not given),"inconclusive: 16.4 µM [cytotoxic, single point]",–
O=C(/C=C/c1ccco1)NC(=S)Nc1nc(-c2ccc(Cl)cc2)cs1,"inconclusive: 1.3 µM [cytotoxic, partial curve, poor fit]",–
CCOc1nc(-c2ccc(Cl)cc2Cl)ccc1C#N,"inconclusive: 32.6 µM [cytotoxic, single point]",–
COc1ccc(NC(=O)CSc2nc(C3CC3)nc3ccccc23)cc1,"inconclusive: 16.4 µM [cytotoxic, single point]",–
CN(C(=O)COC(=O)C1CCN(S(=O)(=O)c2ccc3c(c2)OCCO3)CC1)C1CCCCC1,–,inactive: -9.49%
Oc1ccc(-c2nccs2)cc1,–,inactive: -4.25%
CN(c1ccccc1)S(=O)(=O)c1ccc(Cl)c(C(=O)Nc2ccccc2N2CCOCC2)c1,"inconclusive: 4.61 µM [cytotoxic, partial curve]",–
COC(=O)c1cc(CSc2nc3ccccc3[nH]2)oc1C,active: 20.6 µM,–
O=C1c2cccc(OCC(=O)N3CCCc4ccccc43)c2CCN1Cc1ccc(F)cc1,"inconclusive: 23.1 µM [cytotoxic, single point]",–
CCCc1nc2sc3c(N4CCC(C)CC4)ncnc3c2c2c1CCCC2,–,inactive: 1.82%

# 2 compounds drawn at random from those above, as already listed:
SMILES,Potency,"activity change, negative = cytotoxic"
COc1ccc(S(=O)(=O)NCc2ccco2)cc1NC(=O)c1ccccc1,"inconclusive: 23.1 µM [cytotoxic, single point]",–
COC(=O)c1cc(CSc2nc3ccccc3[nH]2)oc1C,active: 20.6 µM,–
